# Laboratory results taken from PubChem BioAssay AID504467 (National Center for Advancing Translational Sciences (NCATS), 2011).
# Out of some 330,000 compounds screened, about 7,700 (2.3%) were called active. This list was built around the results that the source calls inconclusive (neither active nor inactive); the mix of calls is not that of the screen. Calls follow the shape of the dose curve; as a rule, active = well fitted inhibition curve with a large enough effect; inconclusive = small, poorly fitted or top-dose-only effect, or effect the other way; inactive = flat fitted curve, though single readings scatter. Where the call is inconclusive, the potency comes from a doubtful curve fit.
# Test: qHTS screen for small molecules that inhibit ELG1-dependent DNA repair in human embryonic kidney (HEK293T) cells expressing luciferase-tagged ELG1; also: nearly all actives have a fitted effect of over 55% in size
# Details: HEK293T ELG1-luciferase reporter, luminescence, 16 h, DNA damage induced by 5-fluorouridine; series mostly up to 46.1 µM
# Summary of the method: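 Luminescence from the luciferase reporter, measured 30 min after ONE-Glo reagent at room temperature, was the read-out. Beforehand, 2,000 cells per well were exposed for 16 hr at 37 °C to 5-fluorouridine together with compound or vehicle.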
# Potency is read from the fitted curve at half-maximal effect.
row,SMILES,Potency
1,Cc1ccc(NC(=O)CSc2nc(C)c(C)c(C)n2)cc1S(=O)(=O)N1CCOCC1,"inconclusive: 25.9 µM [inhibitor, single point]"
2,CC1(C)CC(=O)CC2(C1)NCC(c1ccccc1Cl)c1c2[nH]c2ccccc12 (centres undefined),"inconclusive: 29.1 µM [inhibitor, single point]"
3,CCn1c(SCC(=O)c2cc(C)ccc2C)nc2cc(S(=O)(=O)N3CCOCC3)ccc21,"inconclusive: 29.1 µM [inhibitor, single point]"
4,Cc1cc(NC(=O)c2cc3ncc(Br)cn3n2)no1,inactive
5,O=C(/C=C/Sc1ccc(C(F)(F)F)cn1)c1ccccc1,inactive
6,Clc1ccccc1/C=N/c1cc(-c2ccccc2)nn1-c1ccccc1,"inconclusive: 23.1 µM [activator, partial curve, poor fit]"
7,COc1ccccc1OCCC(=O)N1CCN(c2ccccc2OC)CC1,inactive
8,O=C(NCc1ccc(Cl)c(Cl)c1)c1ccco1,inactive
9,O=C(C[C@@H]1C/C=C\C[C@H](Cc2ccc(F)cc2)C(=O)OCCNC1=O)N[C@H](CO)Cc1ccccc1,inactive
10,CCOc1ccccc1N=CC1=C(O)CC(c2ccccc2)CC1=O (centres undefined),inactive
11,CCc1ccc(NC(=O)c2ccc3c(=O)n4c(nc3c2)CCCCC4)cc1,"inconclusive: 16.4 µM [inhibitor, single point]"
12,NC(=O)c1sc2nc(-c3cccs3)ccc2c1N,"inconclusive: 18.3 µM [activator, partial curve]"
13,Cc1nc2ccccn2c1C(=O)NNS(=O)(=O)c1ccc(C(C)(C)C)cc1,"inconclusive: 23.1 µM [inhibitor, partial curve]"
14,C[C@H](CO)N1C[C@H](C)[C@@H](CN(C)C)Oc2c(NS(=O)(=O)c3ccc(F)cc3)cccc2C1=O,"inconclusive: 20.6 µM [activator, partial curve, poor fit]"
15,CN(C)[C@@H]1C(=O)C(C(=O)NCN2CCCC2)=C(O)[C@@]2(O)C(=O)C3=C(O)c4c(O)cccc4[C@@](C)(O)C3CC12 (some centres undefined),inactive
16,COc1ccccc1NC(=O)CSc1nc(=O)n2cc(C)ccc2n1,inactive
17,COC(=O)c1ccc(Cn2c(O)c(N=NC(N)=S)c3ccccc32)o1,"inconclusive: 5.8 µM [inhibitor, partial curve, poor fit]"
18,CC(=O)Nc1cccc(OCC(=O)NCCC2=CCCCC2)c1,"inconclusive: 13 µM [activator, partial curve]"
19,Cc1cccc(C(=O)Nc2ccccc2C(=O)OCc2c(C)noc2C)c1,"inconclusive: 35.5 µM [inhibitor, single point]"
20,CC1(C)C(=O)N(CCN2CCC(C(=O)c3ccc(F)cc3)CC2)c2ccccc21,"inconclusive: 20 µM [inhibitor, single point]"
21,COc1ccc2cc1Oc1ccc(cc1)CC1c3c(cc(OC)c4c3Oc3cc5c(cc3O4)CCNC5C2)CCN1C (centres undefined),"inconclusive: 18.3 µM [inhibitor, single point]"
22,COc1cc2cccc(OC)c(=O)c2c(O)c1OC,"inconclusive: 20.6 µM [activator, partial curve]"

# Grouped by structure, the entries above with a furan ring, fused or not (two)
row,SMILES,Potency
8,O=C(NCc1ccc(Cl)c(Cl)c1)c1ccco1,inactive
17,COC(=O)c1ccc(Cn2c(O)c(N=NC(N)=S)c3ccccc32)o1,"inconclusive: 5.8 µM [inhibitor, partial curve, poor fit]"

# Remaining list, next part

row,SMILES,Potency
1,CCOc1cc(S(=O)(=O)N2CC=C(c3ccc(F)cc3)CC2)c(OCC)cc1-n1cnnn1,active: 5.8 µM
2,Cc1nn(C2CCCO2)c(=O)nc1N (centres undefined),inactive
3,CCC(C)(C)c1ccc(OCCCC[n+]2ccccc2)c(C(C)(C)CC)c1,active: 18.3 µM
4,O=C(Nc1cccc(Cl)c1)OCCOc1ccccc1,"inconclusive: 23.1 µM [activator, partial curve]"
5,CCc1noc(C)c1C(=O)Nc1nc(-c2ccc(OC)cc2)cs1,inactive
6,COc1ccc(S(=O)(=O)N2CCOCC2)cc1NC(=O)CSc1cccc[n+]1[O-],"inconclusive: 9.2 µM [activator, partial curve, poor fit]"
7,Clc1ccccc1-c1ccc(/C=N/Nc2nncc(-c3ccccc3)n2)o1,inactive
8,CCCn1c(SCC(=O)Nc2nc3ccccc3s2)nc2c1c(=O)n(C)c(=O)n2C,inactive
9,O=C(/C=C/c1ccc(Cl)c([N+](=O)[O-])c1)c1cccnc1,"inconclusive: 29.1 µM [activator, single point]"
10,N#CC1(c2ccc(NC(=O)c3ccccc3)cc2)CCCC1,"inconclusive: 2.91 µM [activator, partial curve]"
11,O=C(NCCS(=O)(=O)N1CCCCCC1)c1ccccc1,inactive
12,COc1ccc(-c2csc3ncnc(N4CCN(c5ccccc5)CC4)c23)cc1,"inconclusive: 11.2 µM [inhibitor, partial curve, poor fit]"
13,O=C(O)c1ccccc1C(=O)NNc1ccc(F)cc1F,"inconclusive: 20.6 µM [activator, single point]"
14,CCCCCC(=O)NNC(=S)NC(=O)c1ccc([N+](=O)[O-])cc1,"inconclusive: 18.3 µM [inhibitor, single point]"
15,COC(=O)c1ccc(NC(=O)CC2C(=O)N(c3ccc(C)cc3)C(=O)N2CC(C)C)cc1 (centres undefined),"inconclusive: 29.1 µM [inhibitor, single point]"
16,CCN(CC)c1ccc(NC(=O)CCc2nnc3ccc(N4CCCCC4)nn23)c(C)c1,"inconclusive: 20.6 µM [inhibitor, partial curve]"
17,CC(=O)N1CCc2cc(S(=O)(=O)CCC(=O)Nc3ccc4c(c3)OCCO4)ccc21,"inconclusive: 32.6 µM [activator, partial curve, poor fit]"
18,CCOc1ccc(CNC(=O)C2CCN(C(=O)N3CC(C)Oc4ccccc43)CC2)cc1 (centres undefined),inactive
19,CCOc1ccc(CCNC(=O)Cn2c(=O)c3cccn3c3cccnc32)cc1,inactive
20,COC(=O)c1c(C)[nH]c(/C=N/Nc2ccccc2)c1C,"inconclusive: 14.6 µM [activator, partial curve]"
21,CCCc1cc(C(=O)NC2CCCCC2)no1,"inconclusive: 20.6 µM [activator, partial curve]"
22,Cc1ccc(-n2c(C)cc(C(=O)COC(=O)c3ccc[nH]c3=O)c2C)cc1,"inconclusive: 2.91 µM [activator, full curve]"

# Looked up above:
# CCCn1c(SCC(=O)Nc2nc3ccccc3s2)nc2c1c(=O)n(C)c(=O)n2C – Potency: inactive
# O=C(/C=C/Sc1ccc(C(F)(F)F)cn1)c1ccccc1 – Potency: inactive
